No constants are given. Whether binding was seen depends on the method and setting. Binding seen in cells or lysates may run through a third protein. These calls come from enrichment with a bait or labelling near it, and not all partners need be listed. Tags and fused reporters may be left off the sequences shown.
T1: 6HIS-HA-JHD2 (S. cerevisiae) (UniProt P47156)
T1 sequence: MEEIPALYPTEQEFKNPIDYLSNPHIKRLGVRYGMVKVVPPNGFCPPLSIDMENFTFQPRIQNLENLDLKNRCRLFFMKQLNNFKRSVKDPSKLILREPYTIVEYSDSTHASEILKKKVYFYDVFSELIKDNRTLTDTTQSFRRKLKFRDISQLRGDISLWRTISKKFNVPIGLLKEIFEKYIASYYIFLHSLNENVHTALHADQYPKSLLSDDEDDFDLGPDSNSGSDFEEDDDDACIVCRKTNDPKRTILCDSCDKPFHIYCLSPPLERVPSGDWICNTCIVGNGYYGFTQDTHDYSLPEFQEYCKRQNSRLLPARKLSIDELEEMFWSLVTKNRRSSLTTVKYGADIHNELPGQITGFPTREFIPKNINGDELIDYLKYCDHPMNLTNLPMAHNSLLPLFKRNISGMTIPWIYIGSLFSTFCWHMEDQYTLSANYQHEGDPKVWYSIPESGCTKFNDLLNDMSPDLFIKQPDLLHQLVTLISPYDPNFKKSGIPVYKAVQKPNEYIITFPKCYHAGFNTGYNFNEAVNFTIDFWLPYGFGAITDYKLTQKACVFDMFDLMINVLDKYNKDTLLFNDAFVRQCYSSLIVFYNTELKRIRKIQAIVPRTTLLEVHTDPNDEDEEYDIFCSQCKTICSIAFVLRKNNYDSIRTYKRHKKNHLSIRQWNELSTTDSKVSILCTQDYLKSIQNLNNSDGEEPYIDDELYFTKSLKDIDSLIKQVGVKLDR

B1: CBF2 (protein, UniProt P32504 1-956)
chain: MRSSILFLLKLMKIMDVQQQQEAMSSEDRFQELVDSLKPRTAHQYKTYYTKYIQWCQLNQIIPTPEDNSVNSVPYKDLPISAELIHWFLLDTLITDDKPGEKREETEDLDEEEENSFKIATLKKIIGSLNFLSKLCKVHENPNANIDTKYLESVTKLHTHWIDSQKAITTNETNNTNTQVLCPPLLKVSLNLWNPETNHLSEKFFKTCSEKLRFLVDFQLRSYLNLSFEERSKIRFGSLKLGKRDRDAIIYHKVTHSAEKKDTPGHHQLLALLPQDCPFICPQTTLAAYLYLRFYGIPSVSKGDGFPNLNADENGSLLQDIPILRGKSLTTYPREETFSNYYTTVFRYCHLPYKRREYFNKCNLVYPTWDEDTFRTFFNEENHGNWLEQPEAFAFPDKIPFDFKKIMNFKSPYTSYSTNAKKDPFPPPKDLLVQIFPEIDEYKRHDYEGLSQNSRDFLDLMEVLRERFLSNLPWIYKFFPNHDIFQDPIFGNSDFQSYFNDKTIHSKGSPILSFDILPGFNKIYKNKTNFYSLLIERPSQLTFASSHNPDTHPTQKQESEGPLQMSQLDTTQLNELLKQQSFEYVQFQTLSNFQILLSVFNKIFEKLEMKKSSRGYILHQLNLFKITLDERIKKSKIDDADKFIRDNQPIKKEENIVNEDGPNTSRRTKRPKQIRLLSIADSSDESSTEDSNVFKKDGESIEDGAYGENEDENDSEMQEQLKSMINELINSKISTFLRDQMDQFELKINALLDKILEEKVTRIIEQKLGSHTGKFSTLKRPQLYMTEEHNVGFDMEVPKKLRTSGKYAETVKDNDDHQAMSTTASPSPEQDQEAKSYTDEQEFMLDKSIDSIEGIILEWFTPNAKYANQCVHSMNKSGNKSWRANCEALYKERKSIVEFYIYLVNHESLDRYKAVDICEKLRDQNEGSFSRLAKFLRKWRHDHQNSFDGLLVYLSN
B2: PSE1 (protein, UniProt P32337 1-1089)
chain: MSALPEEVNRTLLQIVQAFASPDNQIRSVAEKALSEEWITENNIEYLLTFLAEQAAFSQDTTVAALSAVLFRKLALKAPPSSKLMIMSKNITHIRKEVLAQIRSSLLKGFLSERADSIRHKLSDAIAECVQDDLPAWPELLQALIESLKSGNPNFRESSFRILTTVPYLITAVDINSILPIFQSGFTDASDNVKIAAVTAFVGYFKQLPKSEWSKLGILLPSLLNSLPRFLDDGKDDALASVFESLIELVELAPKLFKDMFDQIIQFTDMVIKNKDLEPPARTTALELLTVFSENAPQMCKSNQNYGQTLVMVTLIMMTEVSIDDDDAAEWIESDDTDDEEEVTYDHARQALDRVALKLGGEYLAAPLFQYLQQMITSTEWRERFAAMMALSSAAEGCADVLIGEIPKILDMVIPLINDPHPRVQYGCCNVLGQISTDFSPFIQRTAHDRILPALISKLTSECTSRVQTHAAAALVNFSEFASKDILEPYLDSLLTNLLVLLQSNKLYVQEQALTTIAFIAEAAKNKFIKYYDTLMPLLLNVLKVNNKDNSVLKGKCMECATLIGFAVGKEKFHEHSQELISILVALQNSDIDEDDALRSYLEQSWSRICRILGDDFVPLLPIVIPPLLITAKATQDVGLIEEEEAANFQQYPDWDVVQVQGKHIAIHTSVLDDKVSAMELLQSYATLLRGQFAVYVKEVMEEIALPSLDFYLHDGVRAAGATLIPILLSCLLAATGTQNEELVLLWHKASSKLIGGLMSEPMPEITQVYHNSLVNGIKVMGDNCLSEDQLAAFTKGVSANLTDTYERMQDRHGDGDEYNENIDEEEDFTDEDLLDEINKSIAAVLKTTNGHYLKNLENIWPMINTFLLDNEPILVIFALVVIGDLIQYGGEQTASMKNAFIPKVTECLISPDARIRQAASYIIGVCAQYAPSTYADVCIPTLDTLVQIVDFPGSKLEENRSSTENASAAIAKILYAYNSNIPNVDTYTANWFKTLPTITDKEAASFNYQFLSQLIENNSPIVCAQSNISAVVDSVIQALNERSLTEREGQTVISSVKKLLGFLPSSDAMAIFNRYPADIMEKVHKWFA
B3: SEH1 (protein, UniProt P53011 1-349)
chain: MQPFDSGHDDLVHDVVYDFYGRHVATCSSDQHIKVFKLDKDTSNWELSDSWRAHDSSIVAIDWASPEYGRIIASASYDKTVKLWEEDPDQEECSGRRWNKLCTLNDSKGSLYSVKFAPAHLGLKLACLGNDGILRLYDALEPSDLRSWTLTSEMKVLSIPPANHLQSDFCLSWCPSRFSPEKLAVSALEQAIIYQRGKDGKLHVAAKLPGHKSLIRSISWAPSIGRWYQLIATGCKDGRIRIFKITEKLSPLASEESLTNSNMFDNSADVDMDAQGRSDSNTEEKAELQSNLQVELLSEHDDHNGEVWSVSWNLTGTILSSAGDDGKVRLWKATYSNEFKCMSVITAQQ

Molecular target: T1, 6HIS-HA-JHD2 (S. cerevisiae)
Assay: affinity purification with mass spectrometry; whole cell extracts of a wild-type strain with 6HIS-HA-JHD2 induced from the GAL1 promoter for 6 hours; Ni-NTA agarose and anti-HA agarose beads at 4°C for 24 hours; proteins found with the empty vector strain excluded

Question: Which binding does the source give for B1 here?
Answer: Its binding is “binds”.

Question: Which binding does the source give for B2 here?
Answer: The binding was “binds”.

Question: With B3 as the binder, how does the binding read?
Answer: The binding was “binds”.

— PMC12204631
